# Tested on: MDA-MB-231 xenografts
# Experiment: EC17 dose finding and CRS assessment in MDA-MB-231 tumor-bearing mice
# Type: in vivo
# Source text: Panel A: Schematic diagram to show dose scheduling of CAR-T cells (˜10 million “clinical facsimile”) plus EC17 dosed 3 different ways in NSG mice without or with pre-established MDA-MB-231 xenografts. Tumor-free mice received EC17 SIW 500 nmol/kg (2 doses on days 2 and 10). Tumor-bearing mice received EC17 as follows: EC17 SIW 500 nmol/kg (5 doses on days 2, 10, 17, 24, and 31), EC17 M/Th/M_Escalation-1 (repeats of 5/50/500 nmol/kg on Monday/Thursday/Monday followed by 1-week break, i,e. on days 2, 6, 10, 17, 20, 24, and 31), or EC17 M/Th/M_Escalation-2 (repeats of 5/100/1000 nmol/kg on Monday/Thursday/Monday followed by 1-week break, i.e. days 2, 6, 10, 17, 20, 24, and 31). Panel B: Systemic levels of human IFNγ on a log 2 scale detected in mouse plasma on days 11 and 12 after CAR-T cell injection in tumor-bearing versus tumor-free mice (i.e., ˜20 and 42 hours after the previous EC17 dose in all treated cohorts). Panel C: Circulating CAR-T cells in mouse blood identified as human CD3ε+ EGFRt+ events by flow cytometry and enumerated per 100 μL of whole blood. […]
# All animal care and use were performed according to NIH guidelines and in compliance with protocols approved by the Purdue University Animal Use and Care Committee. […] Subcutaneous tumors were measured 2-3 times per week with a caliper and calculated using the ellipsoidal formula (length×width^2)/2. […]
structure (smiles),measurement,setting,value
"Nc1nc2ncc(CNc3ccc(C(=O)N[C@@H](CCC(=O)NCCNC(=S)Nc4ccc(-c5c6ccc(=O)cc-6oc6cc(O)ccc56)c(C(=O)O)c4)C(=O)O)cc3)nc2c(=O)[nH]1 [EC17, FA-(γ)-ethylenediamine-FITC]",CAR-T cell expansion (human CD3ε+ EGFRt+ events in mouse blood),EC17 treated tumor-bearing animals,triggered CAR-T cell expansion
same,persistence of CAR-T cells in blood,"tumor-bearing animals, last measurement",up to 54 days

# From patent US12240870B2, “Sequencing method for CAR T cell therapy” (Purdue Research Foundation, priority 2018, dated 2025)
